Laboratory results reported in patent US20230358760.

By UniProt entry, the sequences of proteins in these tests, tags left out. Residues count along the entry.
UniProt Q92583, 24-94: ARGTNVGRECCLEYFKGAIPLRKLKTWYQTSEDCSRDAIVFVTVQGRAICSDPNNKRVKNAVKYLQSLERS

Tests used:
[1] = target: T1, CXCL9 (MIG) (Homo sapiens) (UniProt Q07325); assay: flow cytometry; settings: purified recombinant protein, single-stranded DNA
T1 sequence (looked up, limits assumed): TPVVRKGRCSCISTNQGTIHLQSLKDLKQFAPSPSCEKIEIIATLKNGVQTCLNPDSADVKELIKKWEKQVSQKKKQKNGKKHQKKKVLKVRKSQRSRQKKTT

[2] = target: T1, CXCL9 (MIG) (Homo sapiens); assay: ELONA; settings: purified recombinant protein
[3] = target: T2, CXCL9, endogenous (macrophage supernatant) (Homo sapiens) (UniProt Q07325); assay: flow cytometry; settings: 150 nM DNA, reduced vs recombinant CXCL9, protein in an extract, protein details: captured by anti-CXCL9 antibody on magnetic beads, label: 5' biotin or Cy5, single-stranded DNA
T2 sequence (looked up, limits assumed): T1 sequence (looked up, limits assumed)

[4] = target: HSA (human serum albumin) (Homo sapiens) (UniProt P02768); assay: ELONA; settings: DNA at 2x KD, purified native protein, protein details: Sigma-Aldrich, label: 5' biotin or Cy5, single-stranded DNA, letters built from the parent sequence and the stated change
[5] = target: T3, CCL3 (Homo sapiens) (UniProt P10147); assay: ELONA; settings: DNA at 2x KD, purified recombinant protein, protein details: Peprotech, label: 5' biotin or Cy5, single-stranded DNA, letters built from the parent sequence and the stated change
T3 sequence (looked up, limits assumed): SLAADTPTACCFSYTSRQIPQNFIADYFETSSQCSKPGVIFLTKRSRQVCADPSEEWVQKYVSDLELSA

[6] = target: T4, CRP (C-reactive protein) (Homo sapiens) (UniProt P02741); assay: ELONA; settings: DNA at 2x KD, purified native protein, protein details: BioRad, label: 5' biotin or Cy5, single-stranded DNA, letters built from the parent sequence and the stated change
T4 sequence (looked up, limits assumed): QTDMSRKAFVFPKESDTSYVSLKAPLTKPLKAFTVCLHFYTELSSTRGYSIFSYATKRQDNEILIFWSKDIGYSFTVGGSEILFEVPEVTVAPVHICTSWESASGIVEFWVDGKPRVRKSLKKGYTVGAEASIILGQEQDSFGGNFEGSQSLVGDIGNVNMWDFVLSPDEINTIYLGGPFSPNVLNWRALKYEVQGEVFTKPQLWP

[7] = target: CCL17 (Homo sapiens) (UniProt Q92583); assay: ELONA; settings: DNA at 2x KD, purified recombinant protein, protein details: BioLegend, label: 5' biotin or Cy5, single-stranded DNA, letters built from the parent sequence and the stated change
[8] = target: CXCL10 (Homo sapiens) (UniProt P02778); assay: ELONA; settings: DNA at 2x KD, purified recombinant protein, protein details: Cell guidance system, label: 5' biotin or Cy5, single-stranded DNA, letters built from the parent sequence and the stated change
[9] = target: T5, sCD25 (soluble interleukin-2 receptor) (Homo sapiens) (UniProt P01589); assay: ELONA; settings: DNA at 2x KD, purified recombinant protein, protein details: Antikorper online, label: 5' biotin or Cy5, single-stranded DNA, letters built from the parent sequence and the stated change
T5 sequence (looked up, limits assumed): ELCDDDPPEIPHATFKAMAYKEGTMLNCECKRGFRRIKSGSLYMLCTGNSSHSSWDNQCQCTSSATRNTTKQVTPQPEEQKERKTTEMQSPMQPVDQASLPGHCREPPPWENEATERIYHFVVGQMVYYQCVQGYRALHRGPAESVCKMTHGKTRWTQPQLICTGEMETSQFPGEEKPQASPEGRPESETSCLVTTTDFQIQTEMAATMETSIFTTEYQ

[10] = target: CXCL1 (Homo sapiens) (UniProt P09341); assay: ELONA; settings: DNA at 2x KD, purified recombinant protein, protein details: Cell guidance system, label: 5' biotin or Cy5, single-stranded DNA, letters built from the parent sequence and the stated change
[11] = target: T6, CCL22 (Homo sapiens) (UniProt O00626); assay: ELONA; settings: DNA at 2x KD, purified recombinant protein, protein details: BioLegend, label: 5' biotin or Cy5, single-stranded DNA, letters built from the parent sequence and the stated change
T6 sequence (looked up, limits assumed): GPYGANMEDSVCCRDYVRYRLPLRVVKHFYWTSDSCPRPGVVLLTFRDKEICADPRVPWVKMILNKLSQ

[12] = indole-clicked EdU at all N (28,44,47,49,50) [28,44,47,49,50 (indole-clicked EdU)]
[13] = indole-clicked EdU at all N [31,45,49,53 (indole-clicked EdU)], variant of G123 DNA

“CACGACGCAAGGGACCACAGGGCACGTGCGAGGCGCTACATCACCGGTGCAAGCACCGTGCAACAGCACGACACCGCAGAGGCA [I29.sc]”: no binding ([1]; N = EdU (indole-clicked), scrambled non-binding control, label: 5' Cy5, variant of I29 In).

“CACGACGCAAGGGACCACAGGGAGGGAGGGTGGGCAAAGGGCCCTAAGTCCGTAACAAAAACACAGCACGACACCGCAGAGGCA [G123 Phe]”: binds ([1]; phenol-clicked EdU at all N [31,45,49,53 (phenol-clicked EdU)], 500 nM DNA, label: 5' Cy5, letters built from the parent sequence and the stated change, variant of G123 DNA).

“CACGACGCAAGGGACCACAGGAGAGACTCACGGGCGGGCGACCTACTGTTCAGCCCAGACCGACAGCACGACACCGCAGAGGCA [I29 Imi]”: no binding ([2]; imidazole-clicked EdU at all N [28,44,47,49,50 (imidazole-clicked EdU)], 100 nM DNA, label: 5' biotin, single-stranded DNA, letters built from the parent sequence and the stated change, variant of I29 …).

“CACGACGCAAGGGACCACAGGAGAGACTCACGGGCGGGCGACCTACTGTTCAGCCCAGACCGACAGCACGACACCGCAGAGGCA [I29 Gua]”: no binding ([2]; guanidine-clicked EdU at all N [28,44,47,49,50 (guanidine-clicked EdU)], 100 nM DNA, label: 5' biotin, single-stranded DNA, letters built from the parent sequence and the stated change, variant of I29 …).

“CACGACGCAAGGGACCACAGGAGAGACTCACGGGCGGGCGACCTACTGTTCAGCCCAGACCGACAGCACGACACCGCAGAGGCA [I29 MePro]”: no binding ([2]; methylpropane-clicked EdU at all N [28,44,47,49,50 (methylpropane-clicked EdU)], 100 nM DNA, label: 5' biotin, single-stranded …, letters built from the parent sequence and the stated change, variant of I29 In).

“CACGACGCAAGGGACCACAGGAGAGACTCACGGGCGGGCGACCTACTGTTCAGCCCAGACCGACAGCACGACACCGCAGAGGCA [I29 Thio]”: binds ([2]; benzothiophene-clicked EdU at all N [28,44,47,49,50 (benzothiophene-clicked EdU)], 100 nM DNA, label: 5' biotin, single-stranded DNA, letters built from the parent sequence and the stated change, variant of I29 …).

“CACGACGCAAGGGACCACAGGGAGGGAGGGTGGGCAAAGGGCCCTAAGTCCGTAACAAAAACACAGCACGACACCGCAGAGGCA [G123 Gua]”: binds ([1]; guanidine-clicked EdU at all N [31,45,49,53 (guanidine-clicked EdU)], 500 nM DNA, label: 5' Cy5, letters built from the parent sequence and the stated change, variant of G123 DNA).

“CACGACGCAAGGGACCACAGGGAGGGAGGGTGGGCAAAGGGCCCTAAGTCCGTAACAAAAACACAGCACGACACCGCAGAGGCA [G123 Bn]”: binds ([1]; benzyl-clicked EdU at all N [31,45,49,53 (benzyl-clicked EdU)], 500 nM DNA, label: 5' Cy5, letters built from the parent sequence and the stated change, variant of G123 DNA).

“CACGACGCAAGGGACCACAGGAGAGACTCACGGGCGGGCGACCTACTGTTCAGCCCAGACCGACAGCACGACACCGCAGAGGCA [I29 T28]”: binds ([2]; indole-clicked EdU at 44,47,49,50, 100 nM DNA, modification at 28 not important, label: 5' biotin, single-stranded DNA, variant of I29 In).

“CACGACGCAAGGGACCACAGGGAGGGAGGGTGGGCAAAGGGCCCTAAGTCCGTAACAAAAACACAGCACGACACCGCAGAGGCA [G123 DNA]”: no binding ([1]; binding buffer without K+, 100 nM DNA, label: 5' biotin or Cy5); binds [3].

“CACGACGCAAGGGACCACAGGAGAGACTCACGGGCGGGCGACCTACTGTTCAGCCCAGACCGACAGCACGACACCGCAGAGGCA [I29 Am]”: no binding ([2]; ethylamine-clicked EdU at all N [28,44,47,49,50 (ethylamine-clicked EdU)], 100 nM DNA, label: 5' biotin, single-stranded DNA, letters built from the parent sequence and the stated change, variant of I29 …).

“CACGACGCAAGGGACCACAGGAGAGACTCACGGGCGGGCGACCTACTGTTCAGCCCAGACCGACAGCACGACACCGCAGAGGCA [I29 In]”: binds ([3]; indole-clicked EdU at all N (28,44,47,49,50) [28,44,47,49,50 (indole-clicked EdU)], letters built from the parent sequence and the stated change); no binding [4, 12]; no binding [5, 12]. “CACGACGCAAGGGACCACAGGAGAGACTCACGGGCGGGCGACCTACTGTTCAGCCCAGACCGACAGCACGACACCGCAGAGGCA [I29 In]”: no binding [6, 12]; no binding [7, 12]; no binding [8, 12]. “CACGACGCAAGGGACCACAGGAGAGACTCACGGGCGGGCGACCTACTGTTCAGCCCAGACCGACAGCACGACACCGCAGAGGCA [I29 In]”: no binding [9, 12]; no binding [10, 12]; no binding [11, 12].

“CACGACGCAAGGGACCACAGGGAGGGAGGGTGGGCAAAGGGCCCTAAGTCCGTAACAAAAACACAGCACGACACCGCAGAGGCA [G123 E-dU]”: binds ([2]; 5-ethynyl-dU (EdU) at all N, not clicked [31,45,49,53 (5-ethynyl-dU, not clicked)], label: 5' biotin or Cy5, single-stranded DNA, letters built from the parent sequence and the stated change, variant of G123 DNA).

“CACGACGCAAGGGACCACAGGGAGGGAGGGTGGGCAAAGGGCCCTAAGTCCGTAACAAAAACACAGCACGACACCGCAGAGGCA [G123 In]”: binds ([1]; indole-clicked EdU at all N [31,45,49,53 (indole-clicked EdU)], without K+ and NH4OAc, 100 nM DNA, label: 5' biotin or Cy5, letters built from the parent sequence and the stated change, variant of G123 DNA); binds ([3]; indole-clicked EdU at all N [31,45,49,53 (indole-clicked EdU)], letters built from the parent sequence and the stated change, variant of G123 DNA); no binding [4, 13]. “CACGACGCAAGGGACCACAGGGAGGGAGGGTGGGCAAAGGGCCCTAAGTCCGTAACAAAAACACAGCACGACACCGCAGAGGCA [G123 In]”: no binding [5, 13]; no binding [6, 13]; no binding [7, 13]. “CACGACGCAAGGGACCACAGGGAGGGAGGGTGGGCAAAGGGCCCTAAGTCCGTAACAAAAACACAGCACGACACCGCAGAGGCA [G123 In]”: no binding [8, 13]; no binding [9, 13]; no binding [10, 13]. “CACGACGCAAGGGACCACAGGGAGGGAGGGTGGGCAAAGGGCCCTAAGTCCGTAACAAAAACACAGCACGACACCGCAGAGGCA [G123 In]”: no binding [11, 13].

“CACGACGCAAGGGACCACAGGAGAGACTCACGGGCGGGCGACCTACTGTTCAGCCCAGACCGACAGCACGACACCGCAGAGGCA [I29 E]”: no binding ([2]; EdU at all N, not clicked [28,44,47,49,50 (EdU, not clicked)], 100 nM DNA, label: 5' biotin, single-stranded DNA, letters built from the parent sequence and the stated change, variant of I29 …).

For part of these data: No signal at the amounts used counts as a negative. For part of these data: Protein sequences can lack the tags named with them. For part of these data: Where cells or extracts were used, other partners may take part. For at least one entry, the source does not settle the construct or the ends of the probe.
